Test results: US20160002297A1, “THERAPEUTIC AGENTS” (NATIONAL UNIVERSITY OF SINGAPORE, priority 2013, published 2016)
No constants are given. Whether binding was seen depends on the method and setting. In cells and extracts the contact can be indirect. A result given as binding can be weak or reduced; the word gives no strength.

Amino acid sequences for entries named in this document (tags omitted). A change or cut given only in a name is not applied to a line headed by its entry. Residues count along the entry.
UniProt P11021, residues 19-654: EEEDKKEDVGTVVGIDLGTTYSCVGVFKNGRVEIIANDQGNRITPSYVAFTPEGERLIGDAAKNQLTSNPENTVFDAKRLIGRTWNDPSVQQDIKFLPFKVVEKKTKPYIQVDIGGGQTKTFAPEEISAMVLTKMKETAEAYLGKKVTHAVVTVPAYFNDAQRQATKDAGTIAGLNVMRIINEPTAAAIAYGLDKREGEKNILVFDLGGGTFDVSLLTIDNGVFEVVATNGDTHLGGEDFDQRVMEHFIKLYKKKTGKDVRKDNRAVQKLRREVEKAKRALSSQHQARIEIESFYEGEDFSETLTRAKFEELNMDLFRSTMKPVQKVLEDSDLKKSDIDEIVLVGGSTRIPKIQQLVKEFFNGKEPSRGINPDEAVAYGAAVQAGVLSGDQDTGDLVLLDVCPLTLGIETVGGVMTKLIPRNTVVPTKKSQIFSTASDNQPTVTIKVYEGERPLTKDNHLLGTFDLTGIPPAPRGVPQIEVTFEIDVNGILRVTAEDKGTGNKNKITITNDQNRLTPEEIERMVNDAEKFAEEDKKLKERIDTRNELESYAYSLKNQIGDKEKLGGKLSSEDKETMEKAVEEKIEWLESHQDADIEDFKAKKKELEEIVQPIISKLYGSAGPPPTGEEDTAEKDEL
UniProt A2ATD1: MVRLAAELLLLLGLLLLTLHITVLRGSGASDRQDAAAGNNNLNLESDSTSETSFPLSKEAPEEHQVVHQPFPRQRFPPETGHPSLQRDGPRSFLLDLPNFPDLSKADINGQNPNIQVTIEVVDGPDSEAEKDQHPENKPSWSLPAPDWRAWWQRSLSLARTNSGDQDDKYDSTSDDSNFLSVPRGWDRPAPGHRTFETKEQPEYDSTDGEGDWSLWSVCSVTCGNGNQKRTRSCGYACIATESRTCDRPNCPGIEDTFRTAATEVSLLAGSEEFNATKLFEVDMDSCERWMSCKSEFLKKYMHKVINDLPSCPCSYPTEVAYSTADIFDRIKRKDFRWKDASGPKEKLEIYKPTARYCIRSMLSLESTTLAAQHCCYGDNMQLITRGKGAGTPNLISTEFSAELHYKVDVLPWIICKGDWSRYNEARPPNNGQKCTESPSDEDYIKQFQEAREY

Assays:
[1] = biological target: T1, GRP78, purified recombinant protein (UniProt P11021 19-654, limits assumed); test: co-immunoprecipitation of purified recombinant proteins
T1 construct: also called glucose-regulated protein 78 kDa; BiP

[2] = biological target: T1, GRP78, purified recombinant protein; test: co-immunoprecipitation with anti-GRP78 antibody, immunoblot with anti-ISM antibody

binding [1]: binds | binding [2]: binds
Substance: Isthmin (ISM), recombinant His-tagged protein (from UniProt A2ATD1) (ligand)
